Assay: Five zone SMB separation experiments, purity and yield at Raffinate
[1] = Five Zone SMB Experiment #7, cycles 1-223
[2] = Five Zone SMB Experiment #7, cycles 224-242
[3] = Five Zone SMB Experiment #7, cycles 243-252
[4] = Five Zone SMB Experiment #7, cycles 253-273
[5] = Five Zone SMB Experiment #7, cycles 274-312
[6] = Five Zone SMB Experiment #7, cycles 313-333

Compound: CC[C@H]1OC(=O)[C@H](C)[C@@H](O[C@H]2C[C@@](C)(OC)[C@@H](O)[C@H](C)O2)[C@H](C)[C@@H](O[C@@H]2O[C@H](C)C[C@H](N(C)C)[C@H]2O)[C@](C)(OC)C[C@@H](C)C(=O)[C@H](C)[C@@H](O)[C@]1(C)O [Clarithromycin, 6-O-methyl erythromycin A]
- Avg. Clarithromycin Purity at Raffinate [1]: 99.9%
- Avg. Clarithromycin Yield at Raffinate [1]: 75.7%
- Avg. Raffinate Clarithromycin Concentration [1]: 0.376 g/L
- Avg. Clarithromycin Purity at Raffinate [2]: 99.9%
- Avg. Clarithromycin Yield at Raffinate [2]: 74.9%
- Avg. Raffinate Clarithromycin Concentration [2]: 0.419 g/L
- Avg. Clarithromycin Purity at Raffinate [3]: 99.9%
- Avg. Clarithromycin Yield at Raffinate [3]: 80.0%
- Avg. Raffinate Clarithromycin Concentration [3]: 0.410 g/L
- Avg. Clarithromycin Purity at Raffinate [4]: 99.9%
- Avg. Clarithromycin Yield at Raffinate [4]: 86.1%
- Avg. Raffinate Clarithromycin Concentration [4]: 0.451 g/L
- Avg. Clarithromycin Purity at Raffinate [5]: 99.9%
- Avg. Clarithromycin Yield at Raffinate [5]: 87.8%
- Avg. Raffinate Clarithromycin Concentration [5]: 0.430 g/L
- Avg. Clarithromycin Purity at Raffinate [6]: 99.9%
- Avg. Clarithromycin Yield at Raffinate [6]: 91.2%
- Avg. Raffinate Clarithromycin Concentration [6]: 0.445 g/L
